The list shows a part of the results.

Chains of the proteins cited; added tags and fusions are not shown. Lines headed by an entry give the natural chain unless they say otherwise; changes in a name come on top.
UniProt O43299: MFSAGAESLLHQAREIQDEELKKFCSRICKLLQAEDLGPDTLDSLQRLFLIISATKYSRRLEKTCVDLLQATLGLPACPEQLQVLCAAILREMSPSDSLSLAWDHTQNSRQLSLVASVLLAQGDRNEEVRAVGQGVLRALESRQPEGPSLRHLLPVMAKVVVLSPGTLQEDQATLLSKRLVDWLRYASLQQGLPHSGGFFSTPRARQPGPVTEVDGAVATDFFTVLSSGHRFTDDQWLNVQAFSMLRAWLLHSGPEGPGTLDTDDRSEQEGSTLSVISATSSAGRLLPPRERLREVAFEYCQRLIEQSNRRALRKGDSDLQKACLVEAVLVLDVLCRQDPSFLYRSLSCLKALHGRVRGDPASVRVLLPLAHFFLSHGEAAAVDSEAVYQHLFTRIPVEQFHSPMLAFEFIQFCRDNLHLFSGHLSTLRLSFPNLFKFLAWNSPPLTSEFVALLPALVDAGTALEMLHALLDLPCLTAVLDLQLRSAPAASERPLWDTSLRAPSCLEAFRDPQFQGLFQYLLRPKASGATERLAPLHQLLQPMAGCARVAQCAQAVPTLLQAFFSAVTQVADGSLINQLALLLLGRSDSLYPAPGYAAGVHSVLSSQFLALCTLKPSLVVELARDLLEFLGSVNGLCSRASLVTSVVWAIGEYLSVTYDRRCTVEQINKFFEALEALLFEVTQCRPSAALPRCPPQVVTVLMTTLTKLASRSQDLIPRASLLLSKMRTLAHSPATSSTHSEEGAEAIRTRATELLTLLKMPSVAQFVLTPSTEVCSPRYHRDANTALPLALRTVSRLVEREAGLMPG
UniProt Q9Y4X5: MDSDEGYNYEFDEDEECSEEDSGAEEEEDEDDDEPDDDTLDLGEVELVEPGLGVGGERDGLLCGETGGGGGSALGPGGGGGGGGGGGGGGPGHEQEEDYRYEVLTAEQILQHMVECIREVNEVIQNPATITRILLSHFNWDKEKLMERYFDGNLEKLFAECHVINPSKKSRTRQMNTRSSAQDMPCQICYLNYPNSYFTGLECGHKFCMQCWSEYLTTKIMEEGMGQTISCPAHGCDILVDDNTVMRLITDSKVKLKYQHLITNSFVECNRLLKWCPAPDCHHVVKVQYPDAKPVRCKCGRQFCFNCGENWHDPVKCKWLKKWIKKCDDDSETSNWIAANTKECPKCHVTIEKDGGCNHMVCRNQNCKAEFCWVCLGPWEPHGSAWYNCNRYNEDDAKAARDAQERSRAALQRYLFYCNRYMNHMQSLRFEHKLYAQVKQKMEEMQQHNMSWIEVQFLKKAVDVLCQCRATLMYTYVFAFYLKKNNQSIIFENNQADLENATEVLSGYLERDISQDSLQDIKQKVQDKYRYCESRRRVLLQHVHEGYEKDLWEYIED
UniProt Q8N5I2: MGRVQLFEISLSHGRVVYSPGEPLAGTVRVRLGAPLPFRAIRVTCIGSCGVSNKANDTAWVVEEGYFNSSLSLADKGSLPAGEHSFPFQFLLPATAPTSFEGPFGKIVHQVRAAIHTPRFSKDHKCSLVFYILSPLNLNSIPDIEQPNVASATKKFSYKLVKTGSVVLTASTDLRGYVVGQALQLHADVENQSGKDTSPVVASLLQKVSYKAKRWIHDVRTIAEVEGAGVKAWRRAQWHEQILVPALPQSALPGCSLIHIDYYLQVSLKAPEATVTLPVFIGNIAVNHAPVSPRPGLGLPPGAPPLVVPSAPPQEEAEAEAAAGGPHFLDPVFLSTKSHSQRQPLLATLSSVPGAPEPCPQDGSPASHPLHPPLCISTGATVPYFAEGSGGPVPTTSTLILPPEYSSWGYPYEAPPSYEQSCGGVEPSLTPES
UniProt Q8N392: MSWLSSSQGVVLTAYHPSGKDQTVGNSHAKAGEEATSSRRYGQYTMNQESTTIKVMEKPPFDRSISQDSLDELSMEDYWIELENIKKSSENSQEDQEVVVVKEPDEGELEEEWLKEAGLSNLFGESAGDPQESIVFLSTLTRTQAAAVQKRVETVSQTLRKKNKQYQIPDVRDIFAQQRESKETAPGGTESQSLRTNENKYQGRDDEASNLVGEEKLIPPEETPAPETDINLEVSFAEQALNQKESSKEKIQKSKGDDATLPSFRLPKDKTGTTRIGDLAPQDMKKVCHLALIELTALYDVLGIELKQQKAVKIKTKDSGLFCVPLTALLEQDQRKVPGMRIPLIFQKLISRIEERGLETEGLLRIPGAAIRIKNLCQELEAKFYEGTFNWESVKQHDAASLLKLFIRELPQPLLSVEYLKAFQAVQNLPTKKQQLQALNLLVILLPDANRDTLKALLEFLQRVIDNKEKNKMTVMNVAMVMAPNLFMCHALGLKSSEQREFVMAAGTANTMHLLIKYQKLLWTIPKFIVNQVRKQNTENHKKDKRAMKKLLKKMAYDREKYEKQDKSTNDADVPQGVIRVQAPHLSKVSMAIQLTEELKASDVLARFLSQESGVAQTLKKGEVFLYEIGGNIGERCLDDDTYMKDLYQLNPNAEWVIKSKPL
UniProt Q06481, whole entry, looked up: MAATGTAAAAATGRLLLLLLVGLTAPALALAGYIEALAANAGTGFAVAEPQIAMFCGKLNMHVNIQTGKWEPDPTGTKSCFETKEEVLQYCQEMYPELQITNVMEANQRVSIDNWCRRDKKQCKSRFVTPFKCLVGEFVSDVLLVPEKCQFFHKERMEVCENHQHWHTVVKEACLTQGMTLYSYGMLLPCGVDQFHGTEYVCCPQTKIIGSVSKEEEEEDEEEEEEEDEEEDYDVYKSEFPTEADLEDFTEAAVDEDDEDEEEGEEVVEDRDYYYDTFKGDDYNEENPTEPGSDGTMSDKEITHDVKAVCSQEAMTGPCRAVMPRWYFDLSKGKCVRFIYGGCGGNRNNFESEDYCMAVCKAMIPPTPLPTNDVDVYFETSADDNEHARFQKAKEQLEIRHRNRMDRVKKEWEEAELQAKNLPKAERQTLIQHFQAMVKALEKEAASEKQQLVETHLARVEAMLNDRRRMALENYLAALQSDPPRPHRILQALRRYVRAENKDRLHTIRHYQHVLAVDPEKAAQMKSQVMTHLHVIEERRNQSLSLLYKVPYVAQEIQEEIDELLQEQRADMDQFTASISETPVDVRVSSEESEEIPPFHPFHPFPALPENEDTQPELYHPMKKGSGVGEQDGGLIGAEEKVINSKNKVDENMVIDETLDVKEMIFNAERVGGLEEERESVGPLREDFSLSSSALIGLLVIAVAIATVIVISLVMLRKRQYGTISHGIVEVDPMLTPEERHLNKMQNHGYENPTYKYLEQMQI
UniProt Q9Y587: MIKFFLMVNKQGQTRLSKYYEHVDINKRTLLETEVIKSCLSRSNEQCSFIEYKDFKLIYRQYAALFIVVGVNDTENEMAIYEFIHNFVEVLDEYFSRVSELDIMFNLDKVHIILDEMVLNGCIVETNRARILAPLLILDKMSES
UniProt Q15041, whole entry, looked up: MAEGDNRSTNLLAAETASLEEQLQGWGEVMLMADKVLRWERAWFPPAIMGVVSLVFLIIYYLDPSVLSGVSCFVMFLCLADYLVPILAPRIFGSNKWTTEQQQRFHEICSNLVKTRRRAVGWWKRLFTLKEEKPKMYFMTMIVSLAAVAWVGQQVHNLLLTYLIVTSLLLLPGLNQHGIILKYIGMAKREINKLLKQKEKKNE
UniProt Q13017, whole entry, looked up: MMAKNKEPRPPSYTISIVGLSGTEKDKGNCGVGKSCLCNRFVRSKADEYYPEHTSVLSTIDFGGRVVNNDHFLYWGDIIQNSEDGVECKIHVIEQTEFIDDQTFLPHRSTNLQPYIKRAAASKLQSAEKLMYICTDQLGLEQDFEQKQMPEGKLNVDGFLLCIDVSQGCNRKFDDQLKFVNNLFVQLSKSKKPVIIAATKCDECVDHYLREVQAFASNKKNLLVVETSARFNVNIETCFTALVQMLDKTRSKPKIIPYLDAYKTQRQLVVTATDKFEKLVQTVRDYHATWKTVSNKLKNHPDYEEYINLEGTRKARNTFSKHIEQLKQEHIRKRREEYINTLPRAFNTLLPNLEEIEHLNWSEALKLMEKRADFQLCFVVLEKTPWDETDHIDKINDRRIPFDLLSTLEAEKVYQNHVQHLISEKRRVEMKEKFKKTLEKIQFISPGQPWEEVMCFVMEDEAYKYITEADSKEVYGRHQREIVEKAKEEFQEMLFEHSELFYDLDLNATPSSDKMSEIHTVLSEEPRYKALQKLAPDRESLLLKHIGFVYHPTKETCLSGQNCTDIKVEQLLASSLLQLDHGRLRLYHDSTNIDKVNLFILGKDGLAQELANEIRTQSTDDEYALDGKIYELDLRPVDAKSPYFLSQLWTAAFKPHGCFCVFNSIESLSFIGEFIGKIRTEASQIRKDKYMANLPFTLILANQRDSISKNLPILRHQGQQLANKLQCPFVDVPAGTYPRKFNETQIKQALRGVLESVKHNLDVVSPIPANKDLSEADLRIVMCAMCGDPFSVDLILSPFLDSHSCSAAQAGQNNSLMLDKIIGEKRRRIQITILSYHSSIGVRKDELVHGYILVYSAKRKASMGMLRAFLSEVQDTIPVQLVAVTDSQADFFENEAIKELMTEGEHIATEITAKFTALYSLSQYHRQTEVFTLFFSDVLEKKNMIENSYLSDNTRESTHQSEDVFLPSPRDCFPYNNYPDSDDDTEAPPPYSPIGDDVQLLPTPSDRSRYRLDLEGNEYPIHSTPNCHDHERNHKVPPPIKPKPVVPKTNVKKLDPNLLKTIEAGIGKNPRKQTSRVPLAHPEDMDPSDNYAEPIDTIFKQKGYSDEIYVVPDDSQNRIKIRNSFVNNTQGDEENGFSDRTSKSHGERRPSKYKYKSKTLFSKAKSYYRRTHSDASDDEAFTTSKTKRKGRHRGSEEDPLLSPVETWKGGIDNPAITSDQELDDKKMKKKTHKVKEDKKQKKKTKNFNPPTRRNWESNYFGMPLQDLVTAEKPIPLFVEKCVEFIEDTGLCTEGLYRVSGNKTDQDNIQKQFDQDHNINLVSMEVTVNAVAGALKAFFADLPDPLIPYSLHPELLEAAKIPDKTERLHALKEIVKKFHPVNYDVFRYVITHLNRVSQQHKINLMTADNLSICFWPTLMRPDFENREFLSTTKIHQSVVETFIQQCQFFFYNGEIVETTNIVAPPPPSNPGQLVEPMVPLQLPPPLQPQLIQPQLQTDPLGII
UniProt Q4LE39: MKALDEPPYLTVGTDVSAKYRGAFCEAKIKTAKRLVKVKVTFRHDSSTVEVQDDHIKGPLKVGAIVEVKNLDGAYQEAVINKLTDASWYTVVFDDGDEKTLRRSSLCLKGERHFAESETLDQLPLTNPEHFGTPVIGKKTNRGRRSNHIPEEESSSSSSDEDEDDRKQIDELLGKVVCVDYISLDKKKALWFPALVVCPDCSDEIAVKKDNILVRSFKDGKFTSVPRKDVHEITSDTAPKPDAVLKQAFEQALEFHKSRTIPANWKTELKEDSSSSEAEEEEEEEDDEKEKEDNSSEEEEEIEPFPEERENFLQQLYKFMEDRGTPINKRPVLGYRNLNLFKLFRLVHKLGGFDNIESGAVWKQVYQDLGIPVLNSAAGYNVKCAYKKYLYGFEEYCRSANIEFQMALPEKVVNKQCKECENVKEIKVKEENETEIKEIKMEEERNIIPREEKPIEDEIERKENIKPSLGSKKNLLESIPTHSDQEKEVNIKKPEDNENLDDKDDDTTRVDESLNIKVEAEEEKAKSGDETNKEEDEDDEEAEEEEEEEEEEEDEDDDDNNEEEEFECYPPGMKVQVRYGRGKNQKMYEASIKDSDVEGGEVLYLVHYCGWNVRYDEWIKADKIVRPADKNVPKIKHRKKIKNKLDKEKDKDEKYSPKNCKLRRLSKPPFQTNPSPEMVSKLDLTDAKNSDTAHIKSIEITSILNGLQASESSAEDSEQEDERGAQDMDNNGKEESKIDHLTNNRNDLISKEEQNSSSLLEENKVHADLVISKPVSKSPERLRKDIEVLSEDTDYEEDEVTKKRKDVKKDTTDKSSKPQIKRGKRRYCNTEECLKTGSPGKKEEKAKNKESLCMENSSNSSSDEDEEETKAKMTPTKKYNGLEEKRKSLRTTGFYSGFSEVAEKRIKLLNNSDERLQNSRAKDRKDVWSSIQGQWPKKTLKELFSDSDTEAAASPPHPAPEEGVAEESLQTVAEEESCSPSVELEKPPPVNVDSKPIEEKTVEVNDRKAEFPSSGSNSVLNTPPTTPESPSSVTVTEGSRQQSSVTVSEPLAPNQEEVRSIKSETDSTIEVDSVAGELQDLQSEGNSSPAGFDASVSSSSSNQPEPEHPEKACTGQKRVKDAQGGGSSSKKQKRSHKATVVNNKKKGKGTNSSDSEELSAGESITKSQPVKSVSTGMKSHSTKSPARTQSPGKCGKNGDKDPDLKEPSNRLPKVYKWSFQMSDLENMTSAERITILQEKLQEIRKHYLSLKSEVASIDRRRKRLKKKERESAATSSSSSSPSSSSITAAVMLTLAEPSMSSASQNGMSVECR
UniProt Q9NRW3: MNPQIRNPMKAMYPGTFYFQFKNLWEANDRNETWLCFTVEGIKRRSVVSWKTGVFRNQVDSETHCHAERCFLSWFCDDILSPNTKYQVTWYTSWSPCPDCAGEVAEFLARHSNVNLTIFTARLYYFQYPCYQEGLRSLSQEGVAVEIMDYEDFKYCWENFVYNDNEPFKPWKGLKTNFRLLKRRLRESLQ

log2 fold change data for 33 targets are collected here from the supplement of paper PMC10849652.

Compound in the first assay: C[C@H](C1=CC=C(C=C1)C(=O)NC2=C3C=CNC3=NC=C2)N
In words: log2 fold change, soluble protein after heating vs DMSO (PISA); higher = thermal stabilisation; K562 lysate, 10 uM; active = over 0.2 and 3.5 SD of the protein, either way, in both replicates (recomputed). The method in brief:
(§1)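 Log-two fold change in thermal stability relative to solvent controls is reported from duplicates. For each sample, crude K562 extract from dounce-homogenised pellets in PBS pH 7.4 with 1 mM MgCl2, at 1 mg/mL protein, was treated with 10 μM compound for 30 min. Aliquots heated for 3 min across 48°C-58°C were pooled, brought to 0.5% NP-40 at 4°C and cleared at 21,000xg for 90 min. The supernatant was quantified by TMTpro 16plex LC-MS/MS with channel sums equalised.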
Turning to ASAP1 isoform 2 (UniProt Q9ULH1), the log2 fold change is inactive: -0.029.
Same read-out and setting: next, APOBEC3G (UniProt Q9HC16): inactive: 0.021; AP5Z1 (UniProt O43299): inactive: -0.104; ARIH1 (UniProt Q9Y4X5): inactive: 0.018.
Same read-out and setting: for ARHGEF10 (UniProt O15013) the value was inactive: -0.08; for APOOL (UniProt Q6UXV4), inactive: -0.053.
Turning to ARFGEF2 (UniProt Q9Y6D5), the log2 fold change is inactive: -0.022.
Take ARRDC1 (UniProt Q8N5I2): the log2 fold change was inactive: -0.046.
For the target ARID2 (UniProt Q68CP9), the log2 fold change is inactive: -0.097.
On the same count and under the same terms, next, ARV1 (UniProt Q9H2C2): inactive: -0.067; APTX (UniProt Q7Z2E3): inactive: 0.049; APIP (UniProt Q96GX9): inactive: -0.213.
With ARMCX3 (UniProt Q9UH62), the log2 fold change was inactive: 0.078.
With ARSA (UniProt P15289), the log2 fold change is inactive: -0.04.
Same read-out and setting: next, ARHGAP18 (UniProt Q8N392): inactive: -0.012; APLP2 (UniProt Q06481): inactive: 0.021; AP4S1 (UniProt Q9Y587): inactive: 0.025.
Turning to ARL6IP1 (UniProt Q15041), the log2 fold change is inactive: 0.032.
On the same count and under the same terms, next, ARHGAP5 (UniProt Q13017): inactive: 0.014; APPL1 (UniProt Q9UKG1): inactive: 0.081; ARID1B isoform 3 (UniProt Q8NFD5): inactive: -0.011.
Still for that read-out and setting: next, ARHGEF11 isoform 2 (UniProt O15085): inactive: -0.011; ARFGEF1 (UniProt Q9Y6D6): inactive: -0.002; ARID4B (UniProt Q4LE39): inactive: 0.025.
The same measure, in the same setting: for ARAF (UniProt P10398) the value was inactive: -0.045.
As for APAF1 (UniProt O14727), the log2 fold change is inactive: -0.015.
Still for that read-out and setting: for ARFGAP3 (UniProt Q9NP61) the value was inactive: -0.037; for ARHGAP21 (UniProt Q5T5U3), inactive: 0.071; for APMAP (UniProt Q9HDC9), inactive: 0.021.
On the same count and under the same terms, for AP5M1 (UniProt Q9H0R1) the value was inactive: -0.179; for APOBEC3C (UniProt Q9NRW3), inactive: -0.058; for APOC1 (UniProt P02654), inactive: 0.278.
Turning to ARFIP1 (UniProt P53367), the log2 fold change is inactive: 0.014.

Compound in the next assay: C[C@H](Nc1ncnc2nc[nH]c12)c1cc2cccc(Cl)c2c(=O)n1-c1ccccc1 [duvelisib]
The assay is described as above. In short, it runs like this: as §1
Consider ASAP1 isoform 2 (UniProt Q9ULH1), for which the log2 fold change was inactive: -0.012.
The same measure, in the same setting: for APOBEC3G (UniProt Q9HC16) the value was inactive: -0.018.
The same measure, in the same setting: next, AP5Z1 (UniProt O43299): inactive: 0.015; ARIH1 (UniProt Q9Y4X5): inactive: 0.033; ARHGEF10 (UniProt O15013): inactive: 0.088.
Still for that read-out and setting: for APOOL (UniProt Q6UXV4) the value was inactive: 0.011; for ARFGEF2 (UniProt Q9Y6D5), inactive: -0.01; for ARRDC1 (UniProt Q8N5I2), inactive: -0.021.
With ARID2 (UniProt Q68CP9), the log2 fold change is inactive: 0.05.
Same read-out and setting: for ARV1 (UniProt Q9H2C2) the value was inactive: -0.08; for APTX (UniProt Q7Z2E3), inactive: 0.056.
The same measure, in the same setting: next, APIP (UniProt Q96GX9): inactive: 0.036.
Still for that read-out and setting: next, ARMCX3 (UniProt Q9UH62): inactive: 0.064.
With ARSA (UniProt P15289), the log2 fold change is inactive: 0.017.
Consider ARHGAP18 (UniProt Q8N392), for which the log2 fold change was inactive: -0.013.
The same measure, in the same setting: for APLP2 (UniProt Q06481) the value was inactive: -0.016.
The same measure, in the same setting: for AP4S1 (UniProt Q9Y587) the value was inactive: -0.102.
The same measure, in the same setting: for ARL6IP1 (UniProt Q15041) the value was inactive: 0.042.
As to ARHGAP5 (UniProt Q13017), the log2 fold change is inactive: -0.075.
On the same count and under the same terms, next, APPL1 (UniProt Q9UKG1): inactive: 0.029.
Same read-out and setting: for ARID1B isoform 3 (UniProt Q8NFD5) the value was inactive: -0.043.
The same measure, in the same setting: for ARHGEF11 isoform 2 (UniProt O15085) the value was inactive: 0.03; for ARFGEF1 (UniProt Q9Y6D6), inactive: 0.01.
For the target ARID4B (UniProt Q4LE39), the log2 fold change was inactive: 0.001.
On the same count and under the same terms, next, ARAF (UniProt P10398): inactive: -0.025; APAF1 (UniProt O14727): inactive: -0.011.
On the same count and under the same terms, next, ARFGAP3 (UniProt Q9NP61): inactive: -0.031; ARHGAP21 (UniProt Q5T5U3): inactive: -0.007.
On the same count and under the same terms, for APMAP (UniProt Q9HDC9) the value was inactive: -0.023; for AP5M1 (UniProt Q9H0R1), inactive: 0; for APOBEC3C (UniProt Q9NRW3), inactive: 0.021.
For APOC1 (UniProt P02654), the log2 fold change is inactive: -0.007.
Same read-out and setting: next, ARFIP1 (UniProt P53367): inactive: -0.019.

Compound in another assay: Cc1cc(Nc2cc(CN3CCOCC3)c3nc(C)c(Cc4ccc(Cl)cc4F)n3n2)n[nH]1 [gandotinib]
The assay is described as above. In short, it runs like this: as §1
ASAP1 isoform 2 (UniProt Q9ULH1): the log2 fold change was inactive: 0.035.
The same measure, in the same setting: next, APOBEC3G (UniProt Q9HC16): inactive: 0.018.
On the same count and under the same terms, for AP5Z1 (UniProt O43299) the value was inactive: 0.185; for ARIH1 (UniProt Q9Y4X5), inactive: -0.033; for ARHGEF10 (UniProt O15013), inactive: 0.124.
Still for that read-out and setting: next, APOOL (UniProt Q6UXV4): inactive: 0.082.
Consider ARFGEF2 (UniProt Q9Y6D5), for which the log2 fold change was inactive: -0.117.
The same measure, in the same setting: next, ARRDC1 (UniProt Q8N5I2): inactive: 0.026.
Same read-out and setting: next, ARID2 (UniProt Q68CP9): inactive: 0.233; ARV1 (UniProt Q9H2C2): inactive: -0.084; APTX (UniProt Q7Z2E3): inactive: 0.
On the same count and under the same terms, next, APIP (UniProt Q96GX9): inactive: 0.098; ARMCX3 (UniProt Q9UH62): inactive: -0.064.
ARSA (UniProt P15289): the log2 fold change was inactive: 0.055.
Still for that read-out and setting: for ARHGAP18 (UniProt Q8N392) the value was inactive: 0.002; for APLP2 (UniProt Q06481), inactive: 0.017.
Still for that read-out and setting: for AP4S1 (UniProt Q9Y587) the value was inactive: -0.064.
On the same count and under the same terms, for ARL6IP1 (UniProt Q15041) the value was inactive: 0.024; for ARHGAP5 (UniProt Q13017), inactive: -0.006.
Regarding APPL1 (UniProt Q9UKG1), the log2 fold change was inactive: -0.037.
Same read-out and setting: for ARID1B isoform 3 (UniProt Q8NFD5) the value was inactive: 0.023; for ARHGEF11 isoform 2 (UniProt O15085), inactive: -0.172; for ARFGEF1 (UniProt Q9Y6D6), inactive: -0.104.
Same read-out and setting: next, ARID4B (UniProt Q4LE39): inactive: -0.003; ARAF (UniProt P10398): inactive: -0.077.
Still for that read-out and setting: next, APAF1 (UniProt O14727): inactive: -0.058; ARFGAP3 (UniProt Q9NP61): inactive: 0.104; ARHGAP21 (UniProt Q5T5U3): inactive: 0.102.
Take APMAP (UniProt Q9HDC9): the log2 fold change was inactive: 0.013.
The same measure, in the same setting: next, AP5M1 (UniProt Q9H0R1): inactive: -0.001; APOBEC3C (UniProt Q9NRW3): inactive: 0.066.
Same read-out and setting: for APOC1 (UniProt P02654) the value was inactive: -0.119.
Same read-out and setting: for ARFIP1 (UniProt P53367) the value was inactive: -0.009.
